From the supplement of paper PMC12823440, “Inhibitors supercharge kinase turnover through native proteolytic circuits” (Nature, 2025)
Structures can show the parent of a compound that is named as a salt. This is one part of the list. Hit calls seldom repeat between salt and free forms of one compound.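 Kinases were expressed as nanoluciferase fusions in K562 cells and luminescence was read every 4 h between 2 and 18 h as percent of control, DMSO set to 100% and a positive control to 0%. A time point counts as decreased when the signal drops significantly (2 sigma). The hit call is the authors' own, does not follow from the count of time points alone, and its rule is not shown.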

Amino acid sequences for entries named in this document (tags omitted). A change or cut given only in a name is not applied to a line headed by its entry.
UniProt Q9UQM7, whole entry: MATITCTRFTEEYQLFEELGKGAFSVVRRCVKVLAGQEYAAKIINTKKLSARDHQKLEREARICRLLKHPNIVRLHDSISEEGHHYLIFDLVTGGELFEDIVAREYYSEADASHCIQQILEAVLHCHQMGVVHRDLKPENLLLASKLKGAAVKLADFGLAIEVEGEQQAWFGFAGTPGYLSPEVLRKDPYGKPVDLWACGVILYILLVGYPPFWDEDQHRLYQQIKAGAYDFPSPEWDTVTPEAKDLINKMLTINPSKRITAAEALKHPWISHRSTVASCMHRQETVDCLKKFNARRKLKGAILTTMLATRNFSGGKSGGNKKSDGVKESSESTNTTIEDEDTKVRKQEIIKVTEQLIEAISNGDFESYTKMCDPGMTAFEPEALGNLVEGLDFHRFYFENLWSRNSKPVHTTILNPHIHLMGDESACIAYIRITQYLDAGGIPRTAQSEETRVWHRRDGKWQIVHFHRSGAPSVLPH
UniProt Q13555: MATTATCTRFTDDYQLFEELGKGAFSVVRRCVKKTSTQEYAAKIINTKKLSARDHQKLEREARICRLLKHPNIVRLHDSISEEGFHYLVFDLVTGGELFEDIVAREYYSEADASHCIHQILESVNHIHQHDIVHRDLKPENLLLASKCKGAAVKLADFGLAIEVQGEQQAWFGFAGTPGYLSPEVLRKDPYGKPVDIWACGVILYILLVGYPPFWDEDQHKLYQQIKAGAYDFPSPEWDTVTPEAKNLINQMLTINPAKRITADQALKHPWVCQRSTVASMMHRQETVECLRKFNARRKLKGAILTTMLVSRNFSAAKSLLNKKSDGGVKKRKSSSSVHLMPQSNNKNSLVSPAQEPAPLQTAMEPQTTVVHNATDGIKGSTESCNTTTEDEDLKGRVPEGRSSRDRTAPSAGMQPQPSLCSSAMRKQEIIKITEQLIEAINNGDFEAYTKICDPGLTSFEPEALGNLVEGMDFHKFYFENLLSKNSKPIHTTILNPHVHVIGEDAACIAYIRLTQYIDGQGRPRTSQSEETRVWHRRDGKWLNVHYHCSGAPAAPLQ
UniProt Q15131: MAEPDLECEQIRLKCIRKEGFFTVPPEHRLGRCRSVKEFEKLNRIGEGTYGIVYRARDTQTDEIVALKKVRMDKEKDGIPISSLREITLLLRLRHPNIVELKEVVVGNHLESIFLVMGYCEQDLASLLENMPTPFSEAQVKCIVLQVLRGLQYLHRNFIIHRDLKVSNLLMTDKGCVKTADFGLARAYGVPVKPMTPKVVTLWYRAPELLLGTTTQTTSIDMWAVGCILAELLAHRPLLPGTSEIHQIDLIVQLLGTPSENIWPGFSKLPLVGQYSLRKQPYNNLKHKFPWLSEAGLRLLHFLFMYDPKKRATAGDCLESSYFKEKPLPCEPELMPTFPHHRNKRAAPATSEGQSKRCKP
UniProt Q00526: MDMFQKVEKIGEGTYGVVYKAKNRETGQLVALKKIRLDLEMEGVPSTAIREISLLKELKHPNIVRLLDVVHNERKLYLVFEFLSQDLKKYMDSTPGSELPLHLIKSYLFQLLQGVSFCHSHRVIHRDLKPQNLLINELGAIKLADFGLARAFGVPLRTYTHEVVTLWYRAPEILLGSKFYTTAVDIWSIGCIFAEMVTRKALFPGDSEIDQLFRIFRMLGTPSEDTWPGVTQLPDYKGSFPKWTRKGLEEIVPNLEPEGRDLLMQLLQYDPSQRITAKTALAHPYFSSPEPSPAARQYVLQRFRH
UniProt Q00535, whole entry, looked up: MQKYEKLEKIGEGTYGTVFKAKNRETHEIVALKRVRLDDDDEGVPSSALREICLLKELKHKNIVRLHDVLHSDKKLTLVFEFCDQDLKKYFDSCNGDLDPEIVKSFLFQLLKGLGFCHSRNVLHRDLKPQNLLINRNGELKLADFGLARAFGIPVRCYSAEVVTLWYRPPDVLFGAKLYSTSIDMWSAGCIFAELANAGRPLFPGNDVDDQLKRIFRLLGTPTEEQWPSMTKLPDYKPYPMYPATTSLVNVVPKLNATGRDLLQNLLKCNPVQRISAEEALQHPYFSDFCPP
UniProt Q00534, whole entry: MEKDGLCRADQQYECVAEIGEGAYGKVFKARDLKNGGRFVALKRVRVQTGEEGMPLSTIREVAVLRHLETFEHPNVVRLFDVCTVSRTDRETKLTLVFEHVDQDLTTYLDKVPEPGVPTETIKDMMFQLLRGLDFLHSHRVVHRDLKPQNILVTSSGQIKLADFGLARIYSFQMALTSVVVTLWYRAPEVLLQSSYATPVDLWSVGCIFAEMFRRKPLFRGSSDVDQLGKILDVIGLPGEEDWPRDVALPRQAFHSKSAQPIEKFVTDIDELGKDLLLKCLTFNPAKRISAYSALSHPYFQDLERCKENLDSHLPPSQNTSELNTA
UniProt O96017, whole entry: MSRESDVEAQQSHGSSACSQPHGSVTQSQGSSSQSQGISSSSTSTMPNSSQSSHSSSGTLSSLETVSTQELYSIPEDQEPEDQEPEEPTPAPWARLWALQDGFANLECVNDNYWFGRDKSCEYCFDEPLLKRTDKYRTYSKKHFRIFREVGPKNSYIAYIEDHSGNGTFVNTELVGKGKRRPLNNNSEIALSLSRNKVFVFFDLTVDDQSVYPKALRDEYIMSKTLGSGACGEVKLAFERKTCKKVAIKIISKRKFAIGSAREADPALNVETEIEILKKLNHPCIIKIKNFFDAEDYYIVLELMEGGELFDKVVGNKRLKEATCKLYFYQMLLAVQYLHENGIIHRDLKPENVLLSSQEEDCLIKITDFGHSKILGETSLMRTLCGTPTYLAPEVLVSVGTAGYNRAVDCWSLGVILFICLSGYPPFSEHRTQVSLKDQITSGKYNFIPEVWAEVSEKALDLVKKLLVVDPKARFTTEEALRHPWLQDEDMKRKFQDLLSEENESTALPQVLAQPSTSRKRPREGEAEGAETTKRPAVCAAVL
UniProt P07333, whole entry: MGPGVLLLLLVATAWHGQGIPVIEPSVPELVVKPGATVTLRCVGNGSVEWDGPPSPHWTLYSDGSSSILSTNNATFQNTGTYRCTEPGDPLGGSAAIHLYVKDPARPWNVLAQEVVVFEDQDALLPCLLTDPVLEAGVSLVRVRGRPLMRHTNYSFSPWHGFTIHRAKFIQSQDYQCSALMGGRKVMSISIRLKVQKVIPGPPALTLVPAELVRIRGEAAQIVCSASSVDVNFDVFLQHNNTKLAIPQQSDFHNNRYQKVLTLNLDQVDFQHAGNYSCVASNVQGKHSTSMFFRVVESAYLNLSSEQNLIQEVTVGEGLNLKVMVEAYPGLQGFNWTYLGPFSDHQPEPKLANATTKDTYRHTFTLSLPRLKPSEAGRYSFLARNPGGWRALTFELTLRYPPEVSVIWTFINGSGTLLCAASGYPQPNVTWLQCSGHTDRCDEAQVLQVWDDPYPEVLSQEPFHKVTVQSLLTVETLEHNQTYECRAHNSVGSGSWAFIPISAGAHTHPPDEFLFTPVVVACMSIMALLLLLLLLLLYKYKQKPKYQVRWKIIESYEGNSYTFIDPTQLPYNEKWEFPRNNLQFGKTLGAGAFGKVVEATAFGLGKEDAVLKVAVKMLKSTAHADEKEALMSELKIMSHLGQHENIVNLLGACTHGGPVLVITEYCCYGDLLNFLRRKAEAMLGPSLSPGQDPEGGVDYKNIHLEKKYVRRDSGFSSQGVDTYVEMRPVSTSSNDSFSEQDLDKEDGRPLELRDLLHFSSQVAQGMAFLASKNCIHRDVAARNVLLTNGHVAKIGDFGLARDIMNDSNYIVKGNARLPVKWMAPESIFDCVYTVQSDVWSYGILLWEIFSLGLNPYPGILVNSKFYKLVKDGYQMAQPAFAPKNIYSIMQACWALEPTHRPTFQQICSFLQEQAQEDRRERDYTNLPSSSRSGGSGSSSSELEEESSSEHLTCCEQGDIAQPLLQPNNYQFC
UniProt P41240: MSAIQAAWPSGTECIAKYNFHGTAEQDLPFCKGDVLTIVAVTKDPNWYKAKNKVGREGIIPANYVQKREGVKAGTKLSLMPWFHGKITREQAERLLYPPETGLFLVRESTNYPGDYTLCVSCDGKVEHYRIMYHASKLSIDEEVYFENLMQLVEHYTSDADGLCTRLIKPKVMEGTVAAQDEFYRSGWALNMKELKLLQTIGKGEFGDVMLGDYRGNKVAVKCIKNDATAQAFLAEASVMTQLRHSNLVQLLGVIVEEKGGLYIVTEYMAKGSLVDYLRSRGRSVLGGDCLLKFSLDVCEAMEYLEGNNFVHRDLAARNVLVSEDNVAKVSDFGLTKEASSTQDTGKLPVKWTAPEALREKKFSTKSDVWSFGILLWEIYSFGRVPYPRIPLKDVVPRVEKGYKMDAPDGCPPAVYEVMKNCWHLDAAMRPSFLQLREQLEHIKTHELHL
UniProt P48729: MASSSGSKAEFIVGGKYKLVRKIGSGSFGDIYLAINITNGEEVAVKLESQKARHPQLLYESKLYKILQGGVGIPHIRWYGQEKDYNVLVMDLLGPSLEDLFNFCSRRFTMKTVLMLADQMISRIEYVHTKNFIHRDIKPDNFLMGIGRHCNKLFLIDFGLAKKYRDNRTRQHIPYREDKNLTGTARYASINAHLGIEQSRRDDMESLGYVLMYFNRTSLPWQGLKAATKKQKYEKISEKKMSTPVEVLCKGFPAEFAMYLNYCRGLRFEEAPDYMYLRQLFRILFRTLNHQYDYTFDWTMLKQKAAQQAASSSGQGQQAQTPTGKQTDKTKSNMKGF
UniProt P48730: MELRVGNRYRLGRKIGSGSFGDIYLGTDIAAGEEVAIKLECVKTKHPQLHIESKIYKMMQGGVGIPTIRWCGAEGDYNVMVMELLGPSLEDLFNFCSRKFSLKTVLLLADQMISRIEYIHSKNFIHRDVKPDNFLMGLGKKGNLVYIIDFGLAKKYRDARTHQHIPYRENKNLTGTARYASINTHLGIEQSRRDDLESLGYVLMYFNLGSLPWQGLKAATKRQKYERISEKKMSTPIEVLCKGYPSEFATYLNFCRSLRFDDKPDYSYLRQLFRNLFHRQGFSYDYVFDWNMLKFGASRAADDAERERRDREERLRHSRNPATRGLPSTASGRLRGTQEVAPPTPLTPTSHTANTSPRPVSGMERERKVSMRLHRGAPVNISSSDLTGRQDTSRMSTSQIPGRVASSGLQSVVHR
UniProt Q08345: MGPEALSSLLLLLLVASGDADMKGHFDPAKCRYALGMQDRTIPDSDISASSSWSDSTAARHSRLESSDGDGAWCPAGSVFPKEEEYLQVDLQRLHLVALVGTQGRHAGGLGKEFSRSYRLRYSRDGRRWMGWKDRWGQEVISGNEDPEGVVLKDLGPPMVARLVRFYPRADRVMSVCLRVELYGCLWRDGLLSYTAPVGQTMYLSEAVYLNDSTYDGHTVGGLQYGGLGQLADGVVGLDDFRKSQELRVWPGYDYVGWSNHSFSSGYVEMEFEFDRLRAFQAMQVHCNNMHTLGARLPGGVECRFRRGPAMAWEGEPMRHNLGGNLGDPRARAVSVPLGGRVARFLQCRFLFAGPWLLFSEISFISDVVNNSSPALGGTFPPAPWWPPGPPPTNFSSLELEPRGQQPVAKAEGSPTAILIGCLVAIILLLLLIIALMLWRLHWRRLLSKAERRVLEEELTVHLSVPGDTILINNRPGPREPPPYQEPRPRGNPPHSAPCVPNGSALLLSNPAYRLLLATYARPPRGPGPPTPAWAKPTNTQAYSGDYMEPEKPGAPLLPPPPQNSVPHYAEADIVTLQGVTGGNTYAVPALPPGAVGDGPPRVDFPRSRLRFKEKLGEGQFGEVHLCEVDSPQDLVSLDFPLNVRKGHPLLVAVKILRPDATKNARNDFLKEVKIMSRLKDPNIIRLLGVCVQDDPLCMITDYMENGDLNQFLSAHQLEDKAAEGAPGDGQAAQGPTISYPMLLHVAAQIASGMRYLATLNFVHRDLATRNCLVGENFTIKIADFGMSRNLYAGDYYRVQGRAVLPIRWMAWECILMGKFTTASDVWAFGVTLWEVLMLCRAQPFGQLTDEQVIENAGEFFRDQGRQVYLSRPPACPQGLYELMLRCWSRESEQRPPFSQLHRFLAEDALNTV
UniProt Q9Y463, whole entry, looked up: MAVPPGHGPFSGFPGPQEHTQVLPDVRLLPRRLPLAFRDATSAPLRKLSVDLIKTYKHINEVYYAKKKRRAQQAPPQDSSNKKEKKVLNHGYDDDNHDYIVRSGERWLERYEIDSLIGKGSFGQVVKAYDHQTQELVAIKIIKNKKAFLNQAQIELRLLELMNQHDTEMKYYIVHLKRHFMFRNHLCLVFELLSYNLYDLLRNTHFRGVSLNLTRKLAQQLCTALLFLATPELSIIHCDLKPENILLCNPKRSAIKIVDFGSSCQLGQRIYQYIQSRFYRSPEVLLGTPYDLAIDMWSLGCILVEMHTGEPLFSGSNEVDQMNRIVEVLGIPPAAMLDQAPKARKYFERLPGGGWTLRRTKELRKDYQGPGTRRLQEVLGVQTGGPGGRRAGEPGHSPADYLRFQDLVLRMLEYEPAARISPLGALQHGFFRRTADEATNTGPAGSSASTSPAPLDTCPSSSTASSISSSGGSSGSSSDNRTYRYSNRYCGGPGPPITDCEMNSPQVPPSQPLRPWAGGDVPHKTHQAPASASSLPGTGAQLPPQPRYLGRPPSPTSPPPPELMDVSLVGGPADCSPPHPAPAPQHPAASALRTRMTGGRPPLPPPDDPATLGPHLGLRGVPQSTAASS

Key:
Test in all cases: number of time points (of 5) at which kinase-Nluc abundance scored as decreased, DMSO-normalised (count); higher = more persistent destabilization
Conditions in all cases: K562; 2-18 h
[1] = molecular target: CAMK2A (UniProt Q9UQM7)
[2] = molecular target: CAMK2G (UniProt Q13555)
[3] = molecular target: CDK10 (UniProt Q15131)
[4] = molecular target: CDK2 (UniProt P24941)
[5] = molecular target: CDK3 (UniProt Q00526)
[6] = molecular target: CDK5 (UniProt Q00535)
[7] = molecular target: CDK6 (UniProt Q00534)
[8] = molecular target: CHEK2 (UniProt O96017)
[9] = molecular target: CSF1R (UniProt P07333)
[10] = molecular target: CSK (UniProt P41240)
[11] = molecular target: CSNK1A1 (UniProt P48729)
[12] = molecular target: CSNK1D (UniProt P48730)
[13] = molecular target: DDR1 (UniProt Q08345)
[14] = molecular target: DYRK1B (UniProt Q9Y463)
[15] = molecular target: DYRK2 (UniProt Q92630)
[16] = molecular target: EGFR (UniProt P00533)
[17] = molecular target: EGFR_G719S (UniProt P00533)
[18] = molecular target: EGFR_G719S_T790M (UniProt P00533)
[19] = molecular target: EGFR_L718V (UniProt P00533)
[20] = molecular target: EGFR_L858R (UniProt P00533)

Measured: number of time points

CC(C)=CCc1c(-c2ccc(O)cc2O)oc2c3c(cc(O)c2c1=O)OC(C)(C)C=C3 [Morusin] (2.5 µM)
0: all assays above

CCCCCCCC/C=C\CCCCCCCCCCCC(=O)O [Erucic acid] (10 µM)
0: all assays above

O=C(O)c1cc(N(Cc2ccccc2O)Cc2ccccc2O)ccc1O [Lavendustin B] (10 µM)
0: all assays above

CC1(C)Cc2c(sc(NC(=S)NC(=O)c3ccccc3)c2C(=O)O)CO1 (10 µM)
0: all assays above

C=CC(=O)Nc1cc(-n2c(=O)ccc3cnc4ccc(-c5ccc(NS(C)(=O)=O)cc5)cc4c32)ccc1C (10 µM)
0: all assays above

O=C(Nc1nc2ccc(NC(=O)C34CC5CC(CC(C5)C3)C4)cc2s1)c1ccccc1 (10 µM)
1: [9]
0: all other assays above

N#Cc1ccnc(Nc2cc(C3CCN(C4COC4)CC3)cc(N3CCC(F)(F)C3)n2)c1 (2.5 µM)
0: all assays above

CNc1nc(Nc2ccc(C(=O)N3CCOCC3)cc2OC)ncc1Cl (2.5 µM)
0: all assays above

CN(C)S(=O)(=O)c1ccc2c(c1)/C(=C/c1cc3c([nH]1)CCCC3)C(=O)N2 (2.5 µM)
5: [13]
2: [1]
0: all other assays above

Random excerpt: 3 compounds from above
O=C(O)c1cc(N(Cc2ccccc2O)Cc2ccccc2O)ccc1O [Lavendustin B] (10 µM)
0: all assays above

CN(C)S(=O)(=O)c1ccc2c(c1)/C(=C/c1cc3c([nH]1)CCCC3)C(=O)N2 (2.5 µM)
5: [13]
2: [1]
0: all other assays above

CC(C)=CCc1c(-c2ccc(O)cc2O)oc2c3c(cc(O)c2c1=O)OC(C)(C)C=C3 [Morusin] (2.5 µM)
0: all assays above

Additional structures follow.

O=[N+]([O-])c1ccc(Nc2nc(N3CCOCC3)nc(N3CCOCC3)n2)cc1 (10 µM)
0: all assays above

CNC(=O)c1ccccc1Oc1nc(Nc2cc(OC)c(OC)c(OC)c2)ncc1Br (2.5 µM)
0: all assays above

NC(=O)c1cnc2[nH]ccc2c1N[C@@H]1[C@@H]2CC3C[C@H]1C[C@@](O)(C3)C2 [Peficitinib] (10 µM)
2: [18]
4: [15]
1: [13]
3: [8] | [17]
0: all other assays above

CCc1cncnc1N1CCN(Cc2nc3ccc(C(F)(F)F)cc3[nH]2)CC1 (10 µM)
0: all assays above

C=CCc1ccc(O)c(-c2ccc(O)c(CC=C)c2)c1 [Honokiol] (10 µM)
0: all assays above

COc1ncccc1-c1cnn2ccc(N3CCN(C(=O)OC(C)C)CC3)nc12 (10 µM)
4: [18]
0: all other assays above

Cn1cc(-c2c[nH]c3ncnc(N4CCOCC4)c23)cc1C#N (10 µM)
0: all assays above

CCN(CC)CCC(=O)N1N=C(c2c(-c3ccccc3)c3cc(Br)ccc3[nH]c2=O)CC1c1ccc(Br)cc1 (stereo not given) (2.5 µM)
1: [13]
2: [2]
4: [8]
0: all other assays above

C[C@H](NC(=O)[C@H]1NCC[C@@H]1O)c1ccc(-c2noc(CCC3CCCC3)n2)cc1 (10 µM)
0: all assays above

COc1ccc2cc3[n+](cc2c1OC)CCc1cc(O)c(O)cc1-3 [Demethyleneberberine] (10 µM)
0: all assays above

COc1ccc2cc(-c3nc(-c4ccc([S+](C)[O-])cc4)[nH]c3-c3ccncc3)ccc2c1 (stereo not given) [Tie2 kinase inhibitor 1] (2.5 µM)
0: all assays above

CC(C)C[C@@H](C(=O)Nc1ccn(C[C@@H](O)CO)n1)N1CC(Oc2ccccc2Cl)=CC1=O [Dorzagliatin] (10 µM)
0: all assays above

O=C1NC(=Nc2c(Cl)cccc2Cl)S/C1=C\c1ccc2nccnc2c1 (2.5 µM)
3: [9]
4: [8]
0: all other assays above

C=CC(=O)N1C[C@H](COc2nc(Nc3cnn(C)c3)nc3[nH]cc(Cl)c23)[C@@H](OC)C1 (2.5 µM)
0: all assays above

C=CC(=O)Nc1cc(Nc2nccc(-n3cc(CN(C)C)c(-c4ccccc4)n3)n2)c(OC)cc1N1CCOCC1 [Lazertinib] (10 µM)
0: all assays above

CC(C)CNc1ccnc(NCc2csc(-c3ccccc3)n2)n1 [KHS101 hydrochloride] (2.5 µM)
2: [15]
1: [17] | [18]
0: all other assays above

Oc1ccc(/C=C/c2cc(O)cc(O)c2)cc1 [Resveratrol] (10 µM)
0: all assays above

CC(C)(C)n1nc(Cc2ccccc2O)c2c(N)ncnc21 (10 µM)
1: [8]
0: all other assays above

FC(F)(F)c1ccc(/C=C/c2nc(COc3ccc(CCCCn4ccnn4)cc3)co2)cc1 [Mubritinib] (10 µM)
1: [13] | [20]
0: all other assays above

Oc1cc(O)c2c(c1)OC1(c3ccc(O)c(O)c3)Oc3cc(O)c4c(c3C2C1O)OC(c1ccc(O)c(O)c1)C(O)C4 (stereo not given) [Procyanidin A1] (10 µM)
0: all assays above

N#CC(c1ccnc(OCc2ccc(CN3CCOCC3)cc2)n1)c1nc2ccccc2s1 (stereo not given) [Bentamapimod] (2.5 µM)
0: all assays above

O=c1[nH]c(C2CCCN2)nc2c1oc1ccc(Cl)cc12 (stereo not given) [XL413 (hydrochloride)] (10 µM)
0: all assays above

C=CC(=O)N1CCC[C@H](n2c(=O)n(-c3ccc(Oc4ccccc4)cc3)c3c(N)ncnc32)C1 [ONO-4059 (analog)] (10 µM)
0: all assays above

C[C@@H]1O[C@@H](O[C@@H]2[C@@H](O)[C@H](OCCc3ccc(O)c(O)c3)O[C@H](CO)[C@H]2OC(=O)/C=C/c2ccc(O)c(O)c2)[C@H](O)[C@H](O)[C@H]1O [Verbascoside] (10 µM)
0: all assays above

CN1CCC(c2ccccc2CC(C)(C)Nc2nc(N3CCOCC3)nc(-n3c(C(F)F)nc4ccccc43)n2)CC1 [Zandelisib] (10 µM)
0: all assays above

COc1cc(N2CCOCC2)ccc1NC(=O)c1csc(-c2cccnc2)n1 [IRAK inhibitor 6] (10 µM)
0: all assays above

C[C@@H]1CC(=O)c2c(ccc3c2C(=O)c2cccc(O)c2C3=O)C1 [Ochromycinone] (10 µM)
0: all assays above

CC(C)CCNC(=O)c1ccc2c(c1)nc(Nc1n[nH]c3ccc(-c4ccccc4OC(F)(F)F)cc13)n2C1CCC(O)CC1 (stereo not drawn) [IRAK inhibitor 4 (trans)] (10 µM)
0: all assays above

C[C@@H]1COCCN1c1nc(-c2cnc(N)cc2C(F)F)nc(N2[C@H](C)COC[C@@H]2C)n1 (2.5 µM)
1: [18]
3: [13]
4: [15]
0: all other assays above

c1ccc(-c2nc(=NCCN3CCOCC3)sn2-c2ccccc2)cc1 [VP3.15 (dihydrobromide)] (10 µM)
0: all assays above

CC(=O)c1c(C)c2cnc(Nc3ccc(N4CCN(C(=O)CNc5cccc6c5C(=O)N(C5CCC(=O)NC5=O)C6=O)CC4)cn3)nc2n(C2CCCC2)c1=O (stereo not given) (10 µM)
4: [7]
0: all other assays above

COc1cc(N2CCOCC2)ccc1Nc1ncc(Cl)c(Nc2ccccc2NS(C)(=O)=O)n1 (2.5 µM)
0: all assays above

COc1ccc(S(=O)(=O)NCc2ccc(C(=O)NCCc3ccc(Cl)cn3)cc2)cc1 (10 µM)
0: all assays above

NC(=S)n1[nH]c(-c2ccc([N+](=O)[O-])cc2)c(N=Nc2cccc(Cl)c2)c1=O (2.5 µM)
0: all assays above

CCc1cccc(CC)c1NC(=O)N1Cc2[nH]nc(NC(=O)c3ccc(N4CCN(C)CC4)cc3)c2C1 (2.5 µM)
3: [2] | [15] | [17]
4: [13]
2: [9] | [18] | [19] | [20]
1: [3] | [8] | [12] | [14] | [16]
0: all other assays above

Cc1cc(Nc2nc(CC3(C(=O)O)CCN(C(=O)c4cccc(Cl)c4Cl)CC3)ccc2F)n[nH]1 (10 µM)
1: [8] | [13] | [17] | [18] | [20]
2: [12] | [15]
0: all other assays above

CNC(=O)c1cc2c(Oc3ccc(NC(=S)NC(=O)Cc4ccccc4)cc3F)ccnc2cc1OC [TAS-115 mesylate] (10 µM)
4: [15]
3: [3] | [17]
2: [1] | [14] | [16]
1: [5] | [20]
0: all other assays above

COc1ccc(-c2coc3cc(O)ccc3c2=O)cc1 [Formononetin] (10 µM)
0: all assays above

C=CC(=O)Nc1cccc(CNc2nc(Nc3ccc(N4CCN(C)CC4)cc3OC)ncc2Cl)c1 (10 µM)
0: all assays above
